Key:
[1] = Food intake, body and organ weight in hamster hyperlipidemia model; format: in vivo, Golden Syrian hamsters; settings: 6 weeks, mean ± SD
Protocol: (§1) Six different experimental diets were prepared by mixing the ingredients according to Table 1 and blending these mixtures with a gelatin solution (20 g/L) in a ratio of 200 g composition per liter of solution. Once the gelatin had set, the product were cut into pieces of approximately 10 g cubes and stored frozen at −80° C. until use.
46 male Golden Syrian hamsters (n=46; body weights=110-120 g) were housed in wire-bottomed cages at 23° C. in an animal room with 12-hour light-dark cycle (one per cage). All hamsters were maintained on a standard cereal based diet for two weeks.
(§2) After this acclimation period the hamsters were randomly divided into six test groups and fed one of the experimental diets for another six weeks.

Golden Syrian hamsters = experiment: Analysis of liver cholesterol and dihydrocholesterol in hamster hyperlipidemia model; format: in vivo; settings: 6 weeks
Protocol: as §1, §2
Cholesterol content in organs was determined by a standard method. Cholesterol in the tissue sample was calculated according to the amount of internal standard 5α-cholestanol added.

| SMILES | Daily Food Intake ([1]; 0.2% in high cholesterol diet) [g/hamster] | Daily Food Intake ([1]; 0.3% in high cholesterol diet) [g/hamster] | DHC accumulated in the liver (Golden Syrian hamsters; 0.2% β-sitosterol in high cholesterol diet (SA)) [mg/g] | DHC accumulated in the liver (Golden Syrian hamsters; 0.3% β-sitosterol in high cholesterol diet (SB)) [mg/g] |
| --- | --- | --- | --- | --- |
| CC(C)CCC[C@@H](C)[C@H]1CC[C@H]2[C@@H]3CC[C@H]4C[C@@H](O)CC[C@]4(C)[C@H]3CC[C@]12C [DHC, dihydrocholesterol] | 9.79 ± 0.67 | 10.30 ± 1.02 | – | – |
| CC[C@H](CC[C@@H](C)[C@H]1CC[C@H]2[C@@H]3CC=C4C[C@@H](O)CC[C@]4(C)[C@H]3CC[C@]12C)C(C)C [β-sitosterol, reference compound] | 10.71 ± 1.20 | 10.56 ± 0.79 | 0.2 | 0.2 |
